A short description of one series: general procedure: Fmoc solid-phase peptide synthesis; Fmoc-L-Trp-TCP. The conditions noted are these: whole synthesis, HPLC, scale 0.03 mmol.
On to T-Ada-Aba-W, for which the “final HPLC purity” value is more than 95%.

Regarding T-Ada-SAW, the “final HPLC purity” value was more than 98%.

Take T-Ada-Ava-W: the “final HPLC purity” value is listed as more than 95%.

The same series, now with this note: whole synthesis, scale 0.03 mmol.
For T-Ada-Aba-W, the isolated mass was 2.7 mg.

As for T-Ada-SAW, the isolated mass is given as 2.6 mg.

In turn, T-Ada-Ava-W came in with an isolated mass of 2.7 mg.

For the origin of these results see US6429288B1 (Roche Diagnostics GmbH, priority 1997, dated 2002).
